Laboratory results reported in publication doi:10.1101/2020.12.21.423744.
Results are given in words; binding and its absence hold for the method and conditions named. Binding seen in cells or lysates may run through a third protein. Some results given as binding are weak or reduced against the parent protein; the word gives no strength.

Protein sequences, listed by entry. Tags and fused reporters are not part of them. Residues count along the entry.
UniProt P02545, residues 1-646: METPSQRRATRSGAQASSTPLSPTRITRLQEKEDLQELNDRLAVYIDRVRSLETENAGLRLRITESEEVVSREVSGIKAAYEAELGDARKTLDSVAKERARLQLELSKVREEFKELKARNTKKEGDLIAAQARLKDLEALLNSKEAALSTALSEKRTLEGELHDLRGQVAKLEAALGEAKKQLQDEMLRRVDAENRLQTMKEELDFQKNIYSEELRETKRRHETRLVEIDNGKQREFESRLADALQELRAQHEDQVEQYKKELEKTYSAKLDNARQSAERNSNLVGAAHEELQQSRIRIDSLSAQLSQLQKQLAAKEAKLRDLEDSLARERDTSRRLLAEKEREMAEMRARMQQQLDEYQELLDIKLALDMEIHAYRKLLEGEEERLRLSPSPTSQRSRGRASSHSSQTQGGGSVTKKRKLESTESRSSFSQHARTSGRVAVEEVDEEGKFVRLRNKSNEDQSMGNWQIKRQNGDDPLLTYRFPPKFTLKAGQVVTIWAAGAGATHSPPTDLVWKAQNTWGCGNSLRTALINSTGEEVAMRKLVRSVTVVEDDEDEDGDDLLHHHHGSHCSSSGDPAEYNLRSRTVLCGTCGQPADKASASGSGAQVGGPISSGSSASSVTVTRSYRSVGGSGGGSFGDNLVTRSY
UniProt Q86WV6: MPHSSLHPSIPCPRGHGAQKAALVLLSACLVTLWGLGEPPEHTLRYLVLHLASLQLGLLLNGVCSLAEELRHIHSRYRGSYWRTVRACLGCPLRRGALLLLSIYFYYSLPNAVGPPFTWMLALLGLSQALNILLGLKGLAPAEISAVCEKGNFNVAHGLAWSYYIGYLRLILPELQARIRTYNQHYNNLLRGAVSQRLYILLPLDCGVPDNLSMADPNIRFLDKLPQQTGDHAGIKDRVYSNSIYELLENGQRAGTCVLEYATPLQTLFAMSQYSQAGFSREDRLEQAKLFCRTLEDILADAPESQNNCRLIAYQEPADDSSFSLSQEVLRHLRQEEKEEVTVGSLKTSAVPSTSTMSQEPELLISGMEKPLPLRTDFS

Target: Lamin A-GFP (UniProt P02545)
Test: FRET or BRET

How did the binding turn out when STING-RFP (from UniProt Q86WV6 1-379) was run?
The binding was “binds”.
